In publication PMC8138766 one finds binding data, which are given here for three molecules.

Amino acid sequences for entries named in this document (tags omitted). A change or cut given only in a name is not applied to a line headed by its entry.
UniProt P52286: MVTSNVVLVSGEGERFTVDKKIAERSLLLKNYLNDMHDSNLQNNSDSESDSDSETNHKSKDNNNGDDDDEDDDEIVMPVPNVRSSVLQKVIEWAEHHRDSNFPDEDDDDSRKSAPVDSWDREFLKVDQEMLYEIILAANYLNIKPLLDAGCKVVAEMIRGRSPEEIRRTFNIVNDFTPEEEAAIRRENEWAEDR

Results are given in words; binding and its absence hold for the method and conditions named. For part of these data: Binding seen in cells or lysates may run through a third protein. Some results given as binding are weak or reduced against the parent protein; the word gives no strength. Tags and fused reporters may be left off the sequences shown.

One assay has as its target T1, Rav2-FLAG (yeast) (UniProt Q03956).
T1 sequence: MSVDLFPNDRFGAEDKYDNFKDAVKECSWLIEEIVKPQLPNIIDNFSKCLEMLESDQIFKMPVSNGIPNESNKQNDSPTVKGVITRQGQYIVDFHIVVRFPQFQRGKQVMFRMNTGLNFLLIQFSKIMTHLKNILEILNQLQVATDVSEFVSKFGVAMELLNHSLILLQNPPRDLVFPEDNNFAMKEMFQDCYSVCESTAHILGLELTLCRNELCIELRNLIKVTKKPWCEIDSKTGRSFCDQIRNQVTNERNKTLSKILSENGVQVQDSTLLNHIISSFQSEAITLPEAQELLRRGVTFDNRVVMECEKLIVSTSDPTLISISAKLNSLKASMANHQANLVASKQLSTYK
As to the kind of experiment: co-IP; anti-FLAG M2 affinity column on cleared lysate of galactose-induced yeast (bait Rav2-FLAG), PBS or TBSE pH 7.4, elution with FLAG peptide; Coomassie SDS-PAGE and immunoblots for V1 subunits A, B and C. On the technique in general: A western blot detects proteins with antibodies after separation by electrophoresis.

The target in assay [1] is RAVE complex (Regulator of the H+-ATPase of Vacuoles and Endosomes), purified via Rav2-FLAG (yeast) (UniProt P47104+Q03956+P52286). As to the kind of experiment: pull-down; SEC fractions of RAVE–V1 or RAVE with a 1.5-fold excess of the MBP-tagged protein and anti-FLAG M2 beads, PBS with 0.5 mg/ml BSA, 1.5 h at 4 °C; elution with FLAG peptide; Western blot; both purified.

B1: Rav1 (protein, UniProt P47104 1-1357)
chain: MSLNFLPGRPNATPQTACQATWQNHTIFAYCSGNNLIILTNKFTRLQTIYTQSDCTAVDINSQNGFIALSFHNRVLIYKPIHQIMQNPKWTQCCQLFHDDTPVNCLRWSSDNELAIGSDFLSFWKIKDNFGVYQPILQWNQKQPKPVYNVIISQDSQLIVSIGKYDCNAKLWKRVSIVGEQAIFNLTMLPHPKPITAMRWKKEPDQVSKNNTASHALYTLCEDKVLRIWSCFEMEKNHTVQIWGEVPLSPTQKFCVIIDNWIIRQTLSVKDSEIFDISDSDIVILGSMTGEMEVLALNNLSQDPPKPMTKKTISHKKVKKATMLNDTRYLYLPEIQPYDNVKGKLSFLVHDLQGVIRHLLIDILQLINNKTEDLSAALEHKFTGHNKSVQKLVRSSDGEALLTTSRFSENGVWYPQKLNHGVSLRLQNTIQTESPIKFAVVHELGKQVICLLENGALQAWECPTNRKEDSEQKQSYLRVETRLKEEKKIHPIVMLNTPEPKHSHERHFTALIFSDGSIKAFEVSLTRGIFEVKSDSLDIDGDDIYKISIIDPVHQTFVSNRPLISLITKKGLTRTYKAIVNYNDRHVQWIKACEINTGIMNCTCIRGSSTGKLCIVNSTGKVMSLWDLNRGVLEYEETFHNPIEDIDWTSTEYGQSIVSIGFTGYALLYTQLRYDYTNNTPSYLPIEKIDITAHTAHNIGDSVWMKNGTFVVASGNQFYIKDKSLDLTDPFTYQSIGSRKILSNDILHLSSVLNGPLPVYHPQFLIQAIYANKLQLVKELLLRLFLALRKLDFESQDVSNLDSNLGMDPLKYFIAKDRDYPVESFPDPYPCFNKTVSLALTEQLTKTTLPYLTRHQQITLITVIEAVDEVTKNENIVDYNGVRFLLGVKLFLSHKNIQKSILMRDVSWALHSDNKEILLSSIDRHITSWNRAREYRIAYWIKEQDLVKKFEDIAKYEFSKDDKRDPSRCAIFYLALKKKQILLSLWKMAIGHPEQQKMVRFISNDFTVPRWRTAALKNAFVLLSKHRYMDAAVFFLLTDSLKDCVNVLCKQVHDMDLAIGVCRVYEGDNGPVLGELLTAQMLPETIKENDRWKASFIYWKLRKQEVAIKALLTAPIDLENNSSIVDKEVCVNRSFLVEDPALLYLYNHLRNRNLKYFIGSLNVEAKIECTLILRVTDILCRMGCNYLAVSLVKNWKFIERNSIPVQKLLKSPTKDRAYSAIGAMASEPISTARMRPSLFDKFGSPSASDIESPNPKLPNSLLDDFLQPPPNSTSSNSLAQSSSSAPRSILDEFVSPSYSQHKENLTPKAPNDSVGETDNSENRKDKLSKDILDDLSSQKPQKPKKSAITKNLLDDFV
Take B1: the binding result with Rav2-FLAG (yeast) is given as “binds”.

B2: maltose-binding protein (MBP)–tagged subunit C (protein, UniProt P31412 1-392)
chain: MATALYTANDFILISLPQNAQPVTAPGSKTDSWFNETLIGGRAFVSDFKIPEFKIGSLDTLIVESEELSKVDNQIGASIGKIIEILQGLNETSTNAYRTLPINNMPVPEYLENFQWQTRKFKLDKSIKDLITLISNESSQLDADVRATYANYNSAKTNLAAAERKKTGDLSVRSLHDIVKPEDFVLNSEHLTTVLVAVPKSLKSDFEKSYETLSKNVVPASASVIAEDAEYVLFNVHLFKKNVQEFTTAAREKKFIPREFNYSEELIDQLKKEHDSAASLEQSLRVQLVRLAKTAYVDVFINWFHIKALRVYVESVLRYGLPPHFNIKIIAVPPKNLSKCKSELIDAFGFLGGNAFMKDKKGKINKQDTSLHQYASLVDTEYEPFVMYIINL
Turning to B2, the binding entry in assay [1] is listed as “binds weakly”.

B3: V1 subunit C (protein, UniProt P31412 1-392)
chain: B2 chain
As for B3, the binding result with Rav2-FLAG (yeast) is reported as “binds weakly”.
